According to PubChem BioAssay AID504834 (National Center for Advancing Translational Sciences (NCATS), 2011):
In all, about 320,000 compounds went through this assay and about 22,000 (6.9%) were called active. This list was built around the results that the source calls inconclusive (neither active nor inactive); the mix of calls is not that of the screen. Calls come from the whole dose curve; as a rule, active = well fitted inhibition curve with a large enough effect; inconclusive = small, poorly fitted or top-dose-only effect, or another doubt; inactive = no such curve, though single readings can be large or run the other way. A potency beside an inconclusive call is a rough fit, not a confirmed value.
% is set by controls: 0 for no effect and ±100 for the full control effect; potency is the fitted concentration of half-maximal effect.

Test: Primary qHTS for delayed death inhibitors of the malarial parasite plastid, 96 hour incubation
Conditions: P. falciparum luciferase reporter growth; series mostly up to 28.7 µM; activity change, negative = inhibition: at the top concentration
Outline: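 Parasite growth measured via integrated firefly luciferase reporter in P. falciparum. Infected erythrocytes at 2% hematocrit, 0.05% parasitemia final were treated 96 hours at 37 C under 5% CO2, and luminescence was read.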
With `Clc1ccc2nc(N3CCNCC3)nc(-c3ccccc3)c2c1` the activity change, negative = inhibition was inactive: 8.96% [at 5.75 µM].
With `CCOc1cc(/C=N/NC(=O)CN2CCCCC2)ccc1OCc1cccc(Cl)c1` the Potency was inconclusive: 20.8 µM [inhibitor, partial curve, poor fit].
For `Cc1ccc(N(CC(=O)NCCSCc2ccco2)S(C)(=O)=O)cc1`, the Potency was inconclusive: 4.15 µM [inhibitor, partial curve, poor fit].
In the case of `Cc1c(OCC(=O)NC(Cc2ccc(Cl)cc2)C(=O)O)ccc2c(-c3ccccc3)cc(=O)oc12` (stereo not drawn), the Potency is reported as inconclusive: 18.5 µM [inhibitor, single point].
With `CCCCOC(=O)C1=C(C)Nc2ncnn2C1c1ccc(OC)c(OC)c1OC` (stereo not drawn) the “activity change, negative = inhibition” value was inactive: 7.4%.
In the case of `CS(=O)(=O)N(Cc1ccccc1F)c1ccccc1`, the Potency is reported as inconclusive: 10.4 µM [inhibitor, single point].
For `O=C(NCC(=O)N1CCCC1)c1ccc(Cl)cc1`, the “activity change, negative = inhibition” value was inactive: -13.3%.
In the case of `COc1cc(-c2nc3c(c(C)nn3-c3ccccc3)c3cc(OC)c(OC)cc23)ccc1O`, the Potency is reported as inconclusive: 18.5 µM [inhibitor, single point].
In the case of `CCOc1ccccc1NC(=O)Cn1cnc2c(cnn2-c2ccc(C)c(C)c2)c1=O`, the Potency is reported as inconclusive: 16.5 µM [inhibitor, single point].
With `Cc1ccc(S(=O)(=O)NCCC(=O)NCC(c2cccs2)N(C)C)cc1C` (stereo not drawn) the Potency was inconclusive: 14.7 µM [inhibitor, partial curve, poor fit].
With `O=C(Cc1ccccc1)NCC(=O)OC(c1ccccc1)c1ccccc1` the Potency was inconclusive: 4.65 µM [inhibitor, partial curve, poor fit].
For `O=C(CNC(=O)c1ccccc1Br)N/N=C\c1cc([N+](=O)[O-])cc(Br)c1O`, the “activity change, negative = inhibition” value was inactive: 32.6%.
In the case of `CCCCCC(=O)Nc1cccc(C2=NOC3(C2)C[C@H](C(N)=O)N(C(=O)c2ccccc2)C3)c1` (stereo partly drawn), the Potency is reported as inconclusive: 18.5 µM [inhibitor, single point].
In the case of `Cc1ccc(N(C(=O)C2CCCO2)C2C=CS(=O)(=O)C2)cc1Cl` (stereo not drawn), the Potency is reported as inconclusive: 18.5 µM [inhibitor, single point].
With `CCCCC#Cc1ccc2c(c1)COc1c3ccccc3nn1-2` the “activity change, negative = inhibition” value was inactive: 139%.
With `O=Cc1c[nH]c2cccc(OCc3ccccc3)c12` the Potency was inconclusive: 11.7 µM [inhibitor, partial curve].
With `COc1cc(NC(=O)c2ccccc2)c(OC)cc1NC(=O)CN1C(=O)NC2(CCCCC2C)C1=O` (stereo not drawn) the Potency was inconclusive: 18.5 µM [inhibitor, single point].
In the case of `COc1ccc(C2(O)CCN(C(=O)c3ccc4c(c3)OCO4)CC2)cc1`, the Potency is reported as inconclusive: 16.5 µM [inhibitor, single point].
For `Cc1cccc(NC(=O)c2cccc(N3C(=O)C4C5CCC(C5)C4C3=O)c2)c1C` (stereo not drawn), the Potency was inconclusive: 0.104 µM [inhibitor, full curve, poor fit].
In the case of `COCCCn1c(=O)c2ccccc2n(Cc2ccc(C)cc2)c1=O`, the Potency is reported as inconclusive: 18.5 µM [inhibitor, single point].
For `CC(C)(C)C(=O)C(Cl)C(=O)Nc1ccccc1` (stereo not drawn), the “activity change, negative = inhibition” value was inactive: 8.75%.
In the case of `N=c1sccn1CC(=O)Nc1cccc(S(=O)(=O)N2CCCCCC2)c1`, the Potency is reported as inconclusive: 13.1 µM [inhibitor, single point].
In the case of `Cc1c(N(C)S(=O)(=O)c2cc(C(=O)N3CCCC3)ccc2Cl)c(=O)n(-c2ccccc2)n1C`, the Potency is reported as active: 4.65 µM.
In the case of `CCN(CC)C(=O)Cn1c(C)c(/C=C/c2cc[n+](C)cc2)c2ccccc21`, the Potency is reported as inconclusive: 0.0738 µM [inhibitor, full curve, poor fit].
With `Cc1cccc(NC(=O)CSc2nc(NS(=O)(=O)c3ccccc3)cc(=O)[nH]2)c1` the Potency was active: 10.4 µM.
With `Cc1cnc(C(=O)OCC(=O)c2cc(C)n(C)c2C)cn1` the “activity change, negative = inhibition” value was inactive: 12.2%.
For `COc1cc(NC(=O)c2cc3c(Cl)nc4ccccc4c3s2)cc(OC)c1OC`, the Potency was inconclusive: 2.33 µM [inhibitor, partial curve].
In the case of `Cc1ccccc1C(=O)NC1CCN(CC(=O)NCc2cccs2)CC1`, the Potency is reported as inconclusive: 18.5 µM [inhibitor, single point].
In the case of `CC(/C=N/NC(=O)c1ccc(Cn2cc([N+](=O)[O-])cn2)o1)=C\c1ccccc1`, the Potency is reported as inconclusive: 11.7 µM [inhibitor, single point].
In the case of `CC(C)n1cc(CN2CCC(C(=O)Nc3ccc(Oc4ccccc4F)cc3)CC2)cn1`, the “activity change, negative = inhibition” value is reported as inactive: -2.25%.
With `Cc1ccc(C)c(S(=O)(=O)N2CCN(C(=O)c3ccccc3Cc3ccccc3)CC2)c1` the Potency was inconclusive: 13.1 µM [inhibitor, partial curve, poor fit].
For `CCC(C)(Oc1ccc(C2(c3ccc(OC(C)(CC)C(=O)O)cc3)CCCCC2)cc1)C(=O)O` (stereo not drawn), the Potency was inconclusive: 6.01 µM [inhibitor, partial curve, poor fit].
In the case of `CC(=O)NC(=S)NNC(=O)CCc1ccccc1`, the Potency is reported as inconclusive: 3.7 µM [inhibitor, full curve].
In the case of `Cc1ccc(-n2nc3ccc(NC(=O)c4ccc5c(c4)OCO5)cc3n2)cc1`, the “activity change, negative = inhibition” value is reported as inactive: 82.4%.
With `CC(C)CCNC(=O)C(=O)Nc1ccccc1` the “activity change, negative = inhibition” value was inactive: -13.7%.
For `CCc1ccc(/C=C2\SC(N3CCCC3)=NC2=O)cc1`, the “activity change, negative = inhibition” value was inactive: -2.23%.
With `Cc1nc(C(=O)NNC(=O)Nc2ccccc2)cs1` the “activity change, negative = inhibition” value was inactive: 25.2%.
In the case of `CC(NC(=O)[C@H](NC(=O)[C@@H]1Cc2ccccc2CN1)c1ccccc1)c1ccccc1` (stereo partly drawn), the Potency is reported as inconclusive: 14.7 µM [inhibitor, partial curve, poor fit].
In the case of `CN(C)c1ccc(CNn2cnnc2SCC(=O)NC(C)(C)C)cc1`, the “activity change, negative = inhibition” value is reported as inactive: 18.2%.
In the case of `O=C(Nc1ccc(S(=O)(=O)N2CCCC2)cc1)c1ccc(Cl)nc1`, the Potency is reported as inconclusive: 13.1 µM [inhibitor, partial curve, poor fit].
In the case of `O=C(N=Nc1c(O)[nH]c2ccccc12)c1cccc(S(=O)(=O)N2CCCCC2)c1`, the Potency is reported as active: 3.29 µM.
For `CC(C)N(C(=O)CSc1nnc(-c2cc3ccccc3cc2O)n1Cc1ccco1)C(C)C`, the “activity change, negative = inhibition” value was inactive: 35.2%.
For `CCOc1ccc(-c2ccc(NS(=O)(=O)c3cc([N+](=O)[O-])c(C)c([N+](=O)[O-])c3)cc2)nn1`, the Potency was inconclusive: 10.4 µM [inhibitor, single point].
